# Laboratory results from patent publication US20250255981A1, “IMMUNOMODULATORY ANTIBODY-DRUG CONJUGATES” (Seagen Inc., priority 2022, published 2025).
# At least one compound was matched to its structure with a doubt left.
# Test system: THP1-Dual™ cells (IRF-Lucia luciferase reporter)
# Experiment: THP1-Dual™ cell reporter assay
# Assay type: cell-based, human
# Conditions: ADC: drug linker conjugated to targeted mAb, 48 h; some values average of multiple experiments
# Experimental: Potency of compounds and ADCs was evaluated using the THP1-Dual™ cells (Invivogen PN: thpd-nfis [also referred to as THP1 dual reporter cells]), which contain an IRF-Lucia luciferase reporter. Cells were cultured in RPMI-1640 (Gibco) with 10% heat-inactivated fetal bovine serum, Pen-Strep (100 U/mL-100 […], Gibco), HEPES (10 mM, Gibco)), sodium pyruvate (1 mM, Gibco), MEM non-essential amino acids (1×, Gibco), GlutaMAX (1×, Gibco), and beta-mercaptoethanol (55 μM, Gibco). Cells were plated in a 96-well flat bottom tissue culture-treated clear polystyrene plate (Corning Costar #3596) at ˜100,000 cells per well in 200 μL with the indicated concentration of the compound or ADC. The supernatant was harvested at 24 hours (compounds) or 48 hours (ADC) post plating for the reporter assay, or as indicated. To measure Lucia reporter signal, 10 µL of the supernatant was combined with 40 µL of QUANTI-Luc™ Luminescence assay reagent (Invivogen PN: rep-qlc1) in a 96-well clear flat bottom tissue culture-treated black polystyrene plate (Corning Costar #3603) and read on a Perkin Elmer Envision plate reader.
compound,measurement,value
"CCn1nc(C)cc1C(=O)Nc1nc2cc(C(N)=O)ccc2n1C/C=C/Cn1c(NC(=O)c2cc(C)nn2CC)nc2cc(C(N)=O)cc(OCCCN(C)C(=O)CCCCCN3C(=O)C=CC3=O)c21 [compound 131, (E)-1-(4-(5-carbamoyl-2-(1-ethyl-3-methyl-1H-pyrazole-5-carboxamido)-1H-benzo[d]imidazol-1-yl)but-2-en-1-yl)-7-(3-(6-(2,5-dioxo-2,5-dihydro-1H-pyrrol-1-yl)-N-methylhexanamido)propoxy)-2-(1-ethyl-3-methyl-1H-pyrazole-5-carboxamido)-1H-benzo[d]imidazole-5-carboxamide]","EC50, Lucia reporter signal",3.6 ng/mL
